# Laboratory results taken from PubChem BioAssay AID652054 (National Center for Advancing Translational Sciences (NCATS), 2013).
# By UniProt entry, the sequences of proteins in these tests, tags left out.
# UniProt P35462, whole entry, looked up: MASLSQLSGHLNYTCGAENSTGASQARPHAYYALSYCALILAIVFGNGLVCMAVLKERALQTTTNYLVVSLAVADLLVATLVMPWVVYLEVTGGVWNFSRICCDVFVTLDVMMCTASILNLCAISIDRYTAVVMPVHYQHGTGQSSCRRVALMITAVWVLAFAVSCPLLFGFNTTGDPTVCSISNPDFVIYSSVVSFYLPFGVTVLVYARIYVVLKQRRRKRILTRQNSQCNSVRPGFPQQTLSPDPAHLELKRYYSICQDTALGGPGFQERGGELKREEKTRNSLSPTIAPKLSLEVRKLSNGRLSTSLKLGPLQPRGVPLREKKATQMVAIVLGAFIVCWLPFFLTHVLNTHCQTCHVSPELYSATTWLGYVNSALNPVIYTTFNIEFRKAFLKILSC
# The campaign covered roughly 360,000 compounds. About 9,100 (2.5%) were called active. Inconclusive means that the source gave no clear call. Such entries were picked first, then a sample of the others. Rule as the data show it: active = max response below about -50%; inconclusive = no clear call, values can overlap the other calls; inactive = above that.
# Molecular target: D(3) dopamine receptor (Homo sapiens) (UniProt P35462)
# Test: qHTS of D3 Dopamine Receptor Antagonist: qHTS
# Details: D3R cells, DiscoveRx beta-arrestin luminescence, antagonist mode; hits give low values
# How it was run: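 Cells expressing the human receptor were seeded at 1500 cells/well, incubated overnight at 37 degrees C in 5% CO2, then exposed to library compounds with dopamine controls for 90 minutes at 37 degrees C before luminescent detection.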
# % is scaled to controls: 0 for no effect and ±100 for the full control effect.
row,Structure (SMILES),"max response, negative = inhibition"
1,NC(=O)c1ccc(NC(=O)COC(=O)/C=C/c2ccc3c(c2)OCO3)cc1,inactive: -23.9%
2,Cc1[nH]n(C(N)=S)c(=O)c1N=Nc1ccc2ccccc2c1,inconclusive: -37.5%
3,O=[N+]([O-])c1ccccc1N/N=C\c1ccccc1Cl,inactive: 8.05%
4,O=C(CC1SC(=NCCc2ccccc2)N(/N=C/c2cccs2)C1=O)Nc1ccc(Cl)cc1 (configuration not stated),inconclusive: -31.4%
5,COc1cc(OC)c(OC)cc1CNC1CCCCCC1,inactive: -22.8%
6,CCCCc1ccc(NC(=O)CSc2nc(=O)n(CCN(CC)CC)c3c2CCC3)cc1,inactive: 7.91%
7,CN(C)c1nc(SCc2ccccc2Cl)nc2c1CCCC2,inconclusive: -45.5%
8,COc1ccc(C)cc1N=Nc1ccc(O)c2ncccc12,active: -117%
9,Cc1cc(CNCc2cn(C)nc2-c2ccc(Oc3ccccc3)cc2)on1,inactive: 3.49%
10,CCC(=NCCc1c(C)[nH]c2ccccc12)C1=C(O)CC(c2ccccc2)CC1=O (configuration not stated),inconclusive: -34.4%
11,Cc1ccc(/C=C/C(=O)N2CCc3ccccc32)o1,inconclusive: -43.5%
12,CC(OC(=O)Cn1cnc2ccccc2c1=O)C(=O)NCc1ccccc1 (configuration not stated),inactive: 3.12%
13,CCOC(=O)CSc1nc(C)[nH]c1[N+](=O)[O-],inconclusive: -31.7%
14,C(#Cc1ccc2c(c1)COc1c3ccccc3nn1-2)c1ccccc1,inactive: -3.27%
15,O=C(CN1CCOCC1)NN=Cc1ccc([N+](=O)[O-])o1,inconclusive: -45.9%
16,COc1ccc(NC(=O)CCN2CCCCCC2)c(OC)c1,active: -55.1%
17,O=Nc1ccc(O)c2ncccc12,inconclusive: -44.8%
18,CCCc1nc2ccccc2c(C(=O)OCC(=O)NC2CC2)c1CC,inactive: 30.7%
19,N#C/C(=C(\O)c1ccco1)c1ccccn1,inconclusive: -35.4%
20,CC(C)n1cnc2c(NCc3ccccc3)cc(N[C@H](C)CO)cc21,inconclusive: -35.4%
21,Cc1ccsc1C(=O)N(C)CC(=O)N(CC(C)C)c1c(N)n(CC(C)C)c(=O)[nH]c1=O,inactive: -13.4%
22,NC(=S)N/N=C/c1ccc(-c2ccc(Cl)c(Cl)c2)o1,inconclusive: -45.4%
23,COc1ccc(C)cc1NC(=O)CSc1nc2ccccc2nc1N1CCCC1,inactive: 7.94%
24,O=c1c2cn[nH]c2[nH]c(=S)n1-c1ccccc1Cl,inconclusive: -32.8%
25,CCc1nc(Sc2nc(C)cc(C)n2)c2oc3ccccc3c2n1,inactive: 43.1%
26,Cc1ccc(NC(=O)N2CCc3ccccc3C2)cc1C,inactive: -3.26%
27,CN(C(=S)NC(=O)c1ccccc1Br)C1CCCCC1,inactive: -26.7%

# Retrieved by structure from the list above:
row,Structure (SMILES),"max response, negative = inhibition"
1,NC(=O)c1ccc(NC(=O)COC(=O)/C=C/c2ccc3c(c2)OCO3)cc1,inactive: -23.9%
26,Cc1ccc(NC(=O)N2CCc3ccccc3C2)cc1C,inactive: -3.26%
